# Measurements published in the supplement of paper PMC6411743.
# Protein sequences, listed by entry. Tags and fused reporters are not part of them. Lines headed by an entry give the natural chain unless they say otherwise; changes in a name come on top.
# UniProt Q12788: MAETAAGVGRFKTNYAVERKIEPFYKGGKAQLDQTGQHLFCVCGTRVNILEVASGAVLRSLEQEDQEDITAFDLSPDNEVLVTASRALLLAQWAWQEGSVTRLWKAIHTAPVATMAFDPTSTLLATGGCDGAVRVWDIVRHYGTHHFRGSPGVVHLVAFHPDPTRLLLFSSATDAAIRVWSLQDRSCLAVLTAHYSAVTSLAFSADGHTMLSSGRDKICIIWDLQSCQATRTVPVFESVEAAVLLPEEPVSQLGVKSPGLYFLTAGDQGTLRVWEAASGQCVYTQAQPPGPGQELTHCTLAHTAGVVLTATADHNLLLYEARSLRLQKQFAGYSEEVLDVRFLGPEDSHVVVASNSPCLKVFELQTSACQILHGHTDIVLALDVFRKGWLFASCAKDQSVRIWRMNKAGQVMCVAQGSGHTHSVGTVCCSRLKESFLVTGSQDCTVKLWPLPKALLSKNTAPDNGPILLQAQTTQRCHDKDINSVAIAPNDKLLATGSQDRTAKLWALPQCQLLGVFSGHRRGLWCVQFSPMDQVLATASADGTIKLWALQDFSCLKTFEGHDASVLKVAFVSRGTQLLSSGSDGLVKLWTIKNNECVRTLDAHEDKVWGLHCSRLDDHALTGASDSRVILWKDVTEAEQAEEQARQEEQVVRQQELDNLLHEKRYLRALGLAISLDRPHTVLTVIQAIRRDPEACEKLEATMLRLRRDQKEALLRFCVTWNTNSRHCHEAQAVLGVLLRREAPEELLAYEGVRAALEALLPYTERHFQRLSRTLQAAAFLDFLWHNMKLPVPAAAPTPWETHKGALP
# UniProt Q01459: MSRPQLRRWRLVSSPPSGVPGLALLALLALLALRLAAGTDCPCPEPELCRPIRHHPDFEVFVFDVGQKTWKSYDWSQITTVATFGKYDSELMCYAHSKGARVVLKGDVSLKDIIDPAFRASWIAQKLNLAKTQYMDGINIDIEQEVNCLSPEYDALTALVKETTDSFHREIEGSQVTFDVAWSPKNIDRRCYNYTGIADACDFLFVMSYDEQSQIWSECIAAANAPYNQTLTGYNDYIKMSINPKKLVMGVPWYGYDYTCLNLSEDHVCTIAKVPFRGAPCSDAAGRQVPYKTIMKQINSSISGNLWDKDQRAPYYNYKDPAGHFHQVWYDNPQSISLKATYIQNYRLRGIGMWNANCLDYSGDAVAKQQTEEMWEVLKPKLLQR
# UniProt Q13045: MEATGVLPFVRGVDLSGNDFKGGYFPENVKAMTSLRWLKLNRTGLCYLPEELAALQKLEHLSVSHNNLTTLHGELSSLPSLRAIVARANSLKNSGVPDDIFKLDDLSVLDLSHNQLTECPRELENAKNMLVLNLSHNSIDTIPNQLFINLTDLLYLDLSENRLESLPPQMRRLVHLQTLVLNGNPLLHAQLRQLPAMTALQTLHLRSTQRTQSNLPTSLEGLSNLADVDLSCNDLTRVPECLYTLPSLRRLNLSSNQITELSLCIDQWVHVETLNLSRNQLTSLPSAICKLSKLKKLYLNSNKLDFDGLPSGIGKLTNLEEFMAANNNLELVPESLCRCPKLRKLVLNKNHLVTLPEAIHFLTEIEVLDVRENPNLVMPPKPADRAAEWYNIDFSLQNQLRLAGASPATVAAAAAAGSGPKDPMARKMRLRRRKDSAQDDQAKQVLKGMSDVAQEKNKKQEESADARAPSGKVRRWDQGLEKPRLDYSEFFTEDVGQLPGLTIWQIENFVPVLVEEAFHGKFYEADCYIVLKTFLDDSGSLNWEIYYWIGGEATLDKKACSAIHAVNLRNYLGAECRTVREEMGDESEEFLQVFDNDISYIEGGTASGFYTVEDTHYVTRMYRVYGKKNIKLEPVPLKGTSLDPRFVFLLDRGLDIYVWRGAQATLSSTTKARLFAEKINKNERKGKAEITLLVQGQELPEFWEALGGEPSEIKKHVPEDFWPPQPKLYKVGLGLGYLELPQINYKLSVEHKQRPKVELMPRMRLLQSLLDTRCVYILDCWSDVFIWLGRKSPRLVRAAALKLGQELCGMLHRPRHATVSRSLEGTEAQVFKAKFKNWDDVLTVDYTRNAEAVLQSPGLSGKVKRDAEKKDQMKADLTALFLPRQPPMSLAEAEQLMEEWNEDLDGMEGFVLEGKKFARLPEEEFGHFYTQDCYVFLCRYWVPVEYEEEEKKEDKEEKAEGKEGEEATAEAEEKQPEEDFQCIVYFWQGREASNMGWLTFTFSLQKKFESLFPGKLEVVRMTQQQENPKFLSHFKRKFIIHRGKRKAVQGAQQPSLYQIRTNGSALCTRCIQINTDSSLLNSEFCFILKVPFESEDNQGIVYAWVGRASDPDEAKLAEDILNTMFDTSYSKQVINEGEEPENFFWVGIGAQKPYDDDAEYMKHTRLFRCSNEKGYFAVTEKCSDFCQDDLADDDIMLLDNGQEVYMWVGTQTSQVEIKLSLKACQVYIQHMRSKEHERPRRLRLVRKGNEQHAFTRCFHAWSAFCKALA
# UniProt Q12872: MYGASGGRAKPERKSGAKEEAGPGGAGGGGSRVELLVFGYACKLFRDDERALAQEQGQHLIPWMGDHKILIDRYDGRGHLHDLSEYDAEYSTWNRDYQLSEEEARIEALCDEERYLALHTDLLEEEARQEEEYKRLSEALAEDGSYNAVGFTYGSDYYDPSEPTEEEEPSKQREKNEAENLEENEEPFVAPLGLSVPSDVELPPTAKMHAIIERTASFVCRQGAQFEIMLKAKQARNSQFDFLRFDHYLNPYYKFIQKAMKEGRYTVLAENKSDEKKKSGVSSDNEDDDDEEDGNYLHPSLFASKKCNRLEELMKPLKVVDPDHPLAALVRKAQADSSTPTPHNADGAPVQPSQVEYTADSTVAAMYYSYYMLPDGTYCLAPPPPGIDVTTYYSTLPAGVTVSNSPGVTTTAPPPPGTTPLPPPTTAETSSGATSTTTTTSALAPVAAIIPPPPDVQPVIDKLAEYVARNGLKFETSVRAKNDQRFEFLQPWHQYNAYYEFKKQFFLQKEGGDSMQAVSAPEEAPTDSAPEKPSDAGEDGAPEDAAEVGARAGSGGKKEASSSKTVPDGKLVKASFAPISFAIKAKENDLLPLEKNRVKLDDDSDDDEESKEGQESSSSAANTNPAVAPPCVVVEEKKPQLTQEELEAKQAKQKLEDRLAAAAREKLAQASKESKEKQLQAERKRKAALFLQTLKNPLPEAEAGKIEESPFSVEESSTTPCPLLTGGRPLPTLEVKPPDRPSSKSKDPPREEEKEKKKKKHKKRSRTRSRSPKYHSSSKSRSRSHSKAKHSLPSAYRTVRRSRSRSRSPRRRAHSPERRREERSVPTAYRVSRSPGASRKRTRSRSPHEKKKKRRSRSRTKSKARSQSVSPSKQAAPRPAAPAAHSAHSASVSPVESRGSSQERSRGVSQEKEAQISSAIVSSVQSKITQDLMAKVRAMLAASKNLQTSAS
# UniProt Q14061: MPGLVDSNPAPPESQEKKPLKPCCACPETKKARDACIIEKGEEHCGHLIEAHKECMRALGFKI
# UniProt Q13158: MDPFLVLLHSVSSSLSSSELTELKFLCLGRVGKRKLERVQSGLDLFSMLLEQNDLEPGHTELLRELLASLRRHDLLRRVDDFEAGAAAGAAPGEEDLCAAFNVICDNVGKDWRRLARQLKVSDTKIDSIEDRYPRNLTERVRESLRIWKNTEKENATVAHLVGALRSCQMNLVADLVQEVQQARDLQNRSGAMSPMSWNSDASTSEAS
# UniProt Q01196, whole entry: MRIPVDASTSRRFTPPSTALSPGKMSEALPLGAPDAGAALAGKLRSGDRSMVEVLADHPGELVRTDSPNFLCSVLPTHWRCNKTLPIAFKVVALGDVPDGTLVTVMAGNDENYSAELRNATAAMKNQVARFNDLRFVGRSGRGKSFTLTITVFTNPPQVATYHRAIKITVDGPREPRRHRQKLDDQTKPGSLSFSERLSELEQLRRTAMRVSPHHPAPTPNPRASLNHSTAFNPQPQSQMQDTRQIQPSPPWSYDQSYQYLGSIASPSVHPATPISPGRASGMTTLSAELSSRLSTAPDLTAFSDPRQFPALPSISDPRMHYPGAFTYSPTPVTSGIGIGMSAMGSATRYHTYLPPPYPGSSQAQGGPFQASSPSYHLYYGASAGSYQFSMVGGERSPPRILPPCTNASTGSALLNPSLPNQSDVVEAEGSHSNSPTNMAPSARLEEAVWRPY
# UniProt Q01082, whole entry: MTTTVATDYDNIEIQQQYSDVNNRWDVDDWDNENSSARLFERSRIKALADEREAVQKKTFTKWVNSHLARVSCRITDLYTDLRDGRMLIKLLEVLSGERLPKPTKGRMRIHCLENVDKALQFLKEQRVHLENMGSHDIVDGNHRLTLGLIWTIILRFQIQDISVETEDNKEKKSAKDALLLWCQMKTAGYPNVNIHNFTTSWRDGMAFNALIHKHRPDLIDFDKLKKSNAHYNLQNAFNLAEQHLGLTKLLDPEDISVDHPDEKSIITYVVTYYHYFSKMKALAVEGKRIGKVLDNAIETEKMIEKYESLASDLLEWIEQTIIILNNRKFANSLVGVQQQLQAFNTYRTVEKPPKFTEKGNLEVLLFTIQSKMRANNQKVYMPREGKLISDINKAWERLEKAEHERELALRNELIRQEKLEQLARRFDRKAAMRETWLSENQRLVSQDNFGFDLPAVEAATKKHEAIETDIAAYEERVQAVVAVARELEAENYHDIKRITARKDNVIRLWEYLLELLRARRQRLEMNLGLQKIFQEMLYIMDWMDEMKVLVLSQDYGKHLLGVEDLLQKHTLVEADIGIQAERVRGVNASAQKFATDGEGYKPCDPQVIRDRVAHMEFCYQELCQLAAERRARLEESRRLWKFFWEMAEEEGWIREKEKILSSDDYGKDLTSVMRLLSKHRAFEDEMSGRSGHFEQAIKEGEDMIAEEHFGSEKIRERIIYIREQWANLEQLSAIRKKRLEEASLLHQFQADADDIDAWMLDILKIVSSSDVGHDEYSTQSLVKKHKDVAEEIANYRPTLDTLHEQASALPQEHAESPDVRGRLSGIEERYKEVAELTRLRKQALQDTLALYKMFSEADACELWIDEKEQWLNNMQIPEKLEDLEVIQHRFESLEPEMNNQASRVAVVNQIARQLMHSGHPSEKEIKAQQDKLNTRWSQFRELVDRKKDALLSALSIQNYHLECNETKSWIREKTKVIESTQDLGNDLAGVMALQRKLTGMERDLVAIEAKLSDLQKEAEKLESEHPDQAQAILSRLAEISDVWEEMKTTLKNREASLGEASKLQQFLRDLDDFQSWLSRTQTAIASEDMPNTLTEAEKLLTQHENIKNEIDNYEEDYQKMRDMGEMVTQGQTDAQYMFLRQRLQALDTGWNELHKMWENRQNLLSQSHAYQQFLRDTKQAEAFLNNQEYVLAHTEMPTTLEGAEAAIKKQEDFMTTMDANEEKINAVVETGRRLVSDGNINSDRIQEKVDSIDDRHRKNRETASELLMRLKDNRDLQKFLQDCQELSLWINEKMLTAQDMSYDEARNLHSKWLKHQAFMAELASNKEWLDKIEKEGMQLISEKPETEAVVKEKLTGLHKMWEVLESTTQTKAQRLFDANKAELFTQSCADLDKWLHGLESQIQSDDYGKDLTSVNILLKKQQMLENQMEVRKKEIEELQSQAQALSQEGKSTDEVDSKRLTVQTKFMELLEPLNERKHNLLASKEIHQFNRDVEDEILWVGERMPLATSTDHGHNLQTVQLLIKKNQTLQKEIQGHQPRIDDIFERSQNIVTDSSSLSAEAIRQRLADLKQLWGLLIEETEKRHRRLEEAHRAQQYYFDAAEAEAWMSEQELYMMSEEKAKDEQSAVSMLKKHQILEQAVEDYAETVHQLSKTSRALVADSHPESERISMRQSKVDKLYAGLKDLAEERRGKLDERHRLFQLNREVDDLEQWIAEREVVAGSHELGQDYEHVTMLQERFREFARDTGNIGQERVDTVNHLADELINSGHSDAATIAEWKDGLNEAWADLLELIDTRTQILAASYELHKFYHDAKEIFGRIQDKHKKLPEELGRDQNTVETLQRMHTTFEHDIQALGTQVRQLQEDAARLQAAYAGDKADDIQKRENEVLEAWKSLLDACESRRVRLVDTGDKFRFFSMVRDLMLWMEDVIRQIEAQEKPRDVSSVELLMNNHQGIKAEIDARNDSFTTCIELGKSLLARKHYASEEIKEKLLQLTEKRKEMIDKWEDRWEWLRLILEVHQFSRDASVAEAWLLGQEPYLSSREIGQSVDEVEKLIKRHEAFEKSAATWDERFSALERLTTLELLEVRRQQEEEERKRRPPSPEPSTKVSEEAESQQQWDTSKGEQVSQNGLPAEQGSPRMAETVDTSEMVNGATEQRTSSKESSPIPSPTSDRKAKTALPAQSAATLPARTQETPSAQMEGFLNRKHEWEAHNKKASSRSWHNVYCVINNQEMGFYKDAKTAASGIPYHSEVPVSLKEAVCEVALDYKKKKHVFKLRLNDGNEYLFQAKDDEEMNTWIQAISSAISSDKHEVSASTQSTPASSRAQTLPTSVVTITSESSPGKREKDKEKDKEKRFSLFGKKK
# ± gives the standard deviation of the averaged measurements. Only a part is listed here, and it is no random draw. Small differences around the control level are noise.
# Compound: Nc1ncnc2c1ncn2[C@@H]1O[C@H](COP(=O)(O)OP(=O)(O)OP(=O)(O)O)[C@@H](O)[C@H]1O [adenosine triphosphate]
# Test: NP40-soluble protein abundance relative to vehicle (solubility fold change) (ratio); higher = more soluble protein in presence of ATP
# Outline: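 Each value is a fold change relative to the detergent-processed vehicle, calculated per replicate from vsn-normalised intensities. Jurkat crude lysate received eight concentrations (0.1 to 10 mM) for 10 min at room temperature and 3 min at 37 °C, then was solubilised in 0.8% NP40 with benzonase (60 min, 4 °C). The ultracentrifuged supernatant was TMT-labelled and run by LC-MS/MS in three independent experiments.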
Target,NP40-soluble protein abundance (concentration: 0.1mM),NP40-soluble protein abundance (concentration: 0.5mM),NP40-soluble protein abundance (concentration: 1mM),NP40-soluble protein abundance (concentration: 2mM),NP40-soluble protein abundance (concentration: 4mM),NP40-soluble protein abundance (concentration: 6mM),NP40-soluble protein abundance (concentration: 8mM),NP40-soluble protein abundance (concentration: 10mM)
BNIP1 (UniProt Q12981),0.949 ± 0.089,0.959 ± 0.034,0.986 ± 0.051,0.983 ± 0.05,0.98 ± 0.07,1 ± 0.012,0.971 ± 0.049,0.932 ± 0.053
TBL3 (UniProt Q12788),1.01 ± 0.013,1.06 ± 0.056,1.15 ± 0.06,1.3 ± 0.04,1.58 ± 0.036,1.59 ± 0.11,1.89 ± 0.1,2.01 ± 0.089
CTBS (UniProt Q01459),0.983 ± 0.05,0.999 ± 0.014,0.951 ± 0.04,0.98 ± 0.028,0.939 ± 0.038,0.957 ± 0.038,0.932 ± 0.032,0.955 ± 0.013
UniProt Q02078-2|Q02078-6,0.954 ± 0.05,0.94 ± 0.023,0.954 ± 0.086,0.939 ± 0.046,0.936 ± 0.065,0.926 ± 0.036,0.907 ± 0.032,0.949 ± 0.048
UniProt Q13045 and related entries,1.02 ± 0.04,1.04 ± 0.04,1.01 ± 0.039,0.985 ± 0.042,0.974 ± 0.03,0.949 ± 0.058,0.976 ± 0.026,0.968 ± 0.051
UniProt Q0VDD8-4,0.862 ± 0.08,0.84 ± 0.023,0.837 ± 0.098,0.884 ± 0.028,0.9026 ± 0.0016,0.9241 ± 0.0037,0.956 ± 0.13,1.06 ± 0.059
UniProt Q06787-5|Q06787-6|Q06787-8|Q06787 and related entries,1.22 ± 0.15,1.11 ± 0.02,1.16 ± 0.14,1.27 ± 0.1,1.56 ± 0.17,1.83 ± 0.13,2.14 ± 0.19,2.48 ± 0.15
UniProt Q13243,1.06 ± 0.026,1.4 ± 0.075,1.5 ± 0.12,1.63 ± 0.088,1.76 ± 0.12,1.95 ± 0.11,1.92 ± 0.13,1.98 ± 0.07
UniProt Q12872 and related entries,1.02 ± 0.054,1.16 ± 0.062,1.24 ± 0.083,1.33 ± 0.049,1.5 ± 0.049,1.77 ± 0.068,1.77 ± 0.066,1.93 ± 0.075
C1QBP (UniProt Q07021),0.667 ± 0.29,0.954 ± 0.12,1.15 ± 0.48,0.69 ± 0.36,1.21 ± 0.26,0.585 ± 0.18,1.19 ± 0.24,0.587 ± 0.2
UniProt Q13642-1|Q13642-4|Q13642-5,1.01 ± 0.12,0.988 ± 0.078,0.979 ± 0.17,0.968 ± 0.11,0.956 ± 0.098,0.926 ± 0.091,0.979 ± 0.12,0.983 ± 0.064
UniProt Q08170,1.06 ± 0.069,1.52 ± 0.095,1.58 ± 0.12,1.68 ± 0.08,1.66 ± 0.095,1.81 ± 0.058,1.68 ± 0.052,1.64 ± 0.073
COX17 (UniProt Q14061),0.96 ± 0.075,0.958 ± 0.039,0.938 ± 0.1,0.895 ± 0.074,0.92 ± 0.1,0.963 ± 0.033,0.859 ± 0.056,0.847 ± 0.023
PRPF4B (UniProt Q13523),1.07 ± 0.021,1.28 ± 0.036,1.29 ± 0.015,1.329 ± 0.011,1.46 ± 0.018,1.6 ± 0.061,1.68 ± 0.041,1.8 ± 0.022
FADD (UniProt Q13158),0.992 ± 0.028,0.963 ± 0.14,1.1 ± 0.14,1.05 ± 0.05,1.06 ± 0.11,1.05 ± 0.046,1.06 ± 0.13,0.969 ± 0.11
UniProt Q13057 and related entries,1.06 ± 0.086,1.07 ± 0.092,1.01 ± 0.061,1.02 ± 0.072,1.02 ± 0.086,0.962 ± 0.094,1.04 ± 0.095,1.02 ± 0.075
DHX9 (UniProt Q08211),1.1 ± 0.036,1.18 ± 0.046,1.24 ± 0.071,1.29 ± 0.043,1.49 ± 0.03,1.55 ± 0.024,1.88 ± 0.091,1.95 ± 0.15
UniProt Q03933-2|Q03933,1.02 ± 0.074,1.11 ± 0.1,0.912 ± 0.029,1.05 ± 0.065,1.05 ± 0.2,1.09 ± 0.17,1.04 ± 0.048,1.01 ± 0.051
UniProt Q01826 and related entries,0.967 ± 0.015,0.975 ± 0.032,0.952 ± 0.051,0.96 ± 0.023,0.919 ± 0.039,0.96 ± 0.031,0.928 ± 0.02,0.922 ± 0.011
UniProt Q01196 and related entries,1.01 ± 0.029,1.06 ± 0.04,1.07 ± 0.026,1.08 ± 0.024,1.11 ± 0.016,1.17 ± 0.034,1.15 ± 0.028,1.21 ± 0.034
UniProt Q01082 and related entries,0.884 ± 0.042,0.879 ± 0.062,0.887 ± 0.029,0.899 ± 0.014,0.928 ± 0.03,1.05 ± 0.037,1.04 ± 0.06,1.07 ± 0.048
THOC5 (UniProt Q13769),1.09 ± 0.044,1.48 ± 0.073,1.53 ± 0.054,1.68 ± 0.11,2.01 ± 0.17,2.23 ± 0.28,2.52 ± 0.27,2.52 ± 0.29
CUL4A (UniProt Q13619),1.04 ± 0.093,1.02 ± 0.058,0.99 ± 0.13,0.955 ± 0.08,0.918 ± 0.08,0.89 ± 0.098,0.963 ± 0.047,0.94 ± 0.047

# Complete entries from above.
# UniProt Q03933-2|Q03933 in the list: NP40-soluble protein abundance (concentration: 0.1mM): 1.02 ± 0.074; NP40-soluble protein abundance (concentration: 0.5mM): 1.11 ± 0.1; NP40-soluble protein abundance (concentration: 1mM): 0.912 ± 0.029; NP40-soluble protein abundance (concentration: 2mM): 1.05 ± 0.065; NP40-soluble protein abundance (concentration: 4mM): 1.05 ± 0.2; NP40-soluble protein abundance (concentration: 6mM): 1.09 ± 0.17; NP40-soluble protein abundance (concentration: 8mM): 1.04 ± 0.048; NP40-soluble protein abundance (concentration: 10mM): 1.01 ± 0.051
# DHX9 (UniProt Q08211) in the list: NP40-soluble protein abundance (concentration: 0.1mM): 1.1 ± 0.036; NP40-soluble protein abundance (concentration: 0.5mM): 1.18 ± 0.046; NP40-soluble protein abundance (concentration: 1mM): 1.24 ± 0.071; NP40-soluble protein abundance (concentration: 2mM): 1.29 ± 0.043; NP40-soluble protein abundance (concentration: 4mM): 1.49 ± 0.03; NP40-soluble protein abundance (concentration: 6mM): 1.55 ± 0.024; NP40-soluble protein abundance (concentration: 8mM): 1.88 ± 0.091; NP40-soluble protein abundance (concentration: 10mM): 1.95 ± 0.15
